For 6 molecules, T/C results are on record in PubChem BioAssay AID328 (DTP/NCI, 2004).

The assay deals with BDF1 mice, P388 leukemia ip, median survival T/C. The assay is described as follows: NCI In Vivo Anticancer Drug Screen. Data for tumor model P388 Leukemia (intraperitoneal) in B6D2F1 (BDF1) mice. Conditions: T/C endpoint: median survival time, higher T/C = longer survival. The gist of the method:
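Survival ratio, drug arm over vehicle arm, in mice with a transplanted tumour.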

Setting [1] is: dose: 2.0 mg/kg/injection, schedule: Q01DX009 (ip), vehicle: saline.
[2] abbreviates: dose: 25.0 mg/kg/injection, schedule: Q01DX009 (ip), vehicle: saline.
Setting [3] is: dose: 37.5 mg/kg/injection, schedule: Q01DX009 (ip), vehicle: saline.
Where [4] appears, read: dose: 4.0 mg/kg/injection, schedule: Q01DX009 (ip), vehicle: saline.
[5] abbreviates: dose: 16.5 mg/kg/injection, schedule: Q04DX003 (ip), vehicle: saline.
[6] abbreviates: dose: 25.0 mg/kg/injection, schedule: Q04DX003 (ip), vehicle: saline.

Molecules are shown by their SMILES. The list shows only some results of the screen, not a fair sample: it gathers some chemical classes. Not every dose and run of a compound is shown. T/C: endpoint of the treated group in % of that of the vehicle group. For survival time, the PubChem record calls one and a half times the control and up active, and a quarter to a half above the control has no call in these data; cut-offs in other NCI protocols can differ. Some entries show no survivor count and are marked so; the dose need not have been tolerated. Schedule codes are those of the source, read here as Q, the interval in days (D) or hours (H), X, the number of doses. Some entries were tested several times; their values stand side by side, smallest first.

Turning to `C1=Nc2ccccc2Oc2ccccc21`, the T/C was 94 % of control [survivor count not shown] (dose: 50.0 mg/kg/injection, schedule: Q01DX009 (ip), vehicle: saline with Tween-80); 88 % of control [survivor count not shown] (dose: 100.0 mg/kg/injection, schedule: Q01DX009 (ip), vehicle: saline with Tween-80); 104 % of control [survivor count not shown] (dose: 200.0 mg/kg/injection, schedule: Q01DX009 (ip), vehicle: saline with Tween-80).
As to `ClCCNCCCNCCCl`, the T/C by setting is: under setting [1], 91 % of control [survivor count not shown]; (dose: 4.12 mg/kg/injection, schedule: Q01DX009 (ip), vehicle: saline) 108 % of control [survivor count not shown]; (dose: 8.25 mg/kg/injection, schedule: Q01DX009 (ip), vehicle: saline) 133 % of control [survivor count not shown]; (dose: 16.5 mg/kg/injection, schedule: Q01DX009 (ip), vehicle: saline) 181 % of control [survivor count not shown]; under setting [2], 236 % of control [survivor count not shown]; under setting [3], 150 % of control [survivor count not shown].
As to `ClCCCC(Cl)CNCCCl` (stereo unspecified), the T/C (dose: 1.0 mg/kg/injection, schedule: Q01DX009 (ip), vehicle: saline) was 95 % of control [survivor count not shown]; the T/C (dose: 1.0 mg/kg/injection, schedule: Q04DX003 (ip), vehicle: saline) is 108 % of control [survivor count not shown]; the T/C under setting [1] was 119 % of control [survivor count not shown]; the T/C (dose: 2.0 mg/kg/injection, schedule: Q04DX003 (ip), vehicle: saline) was 108 % of control [survivor count not shown]; the T/C (dose: 2.5 mg/kg/injection, schedule: Q01DX009 (ip), vehicle: saline) is 120 % of control [survivor count not shown]; the T/C under setting [4] was 109 % of control [survivor count not shown]. The T/C runs as follows: (dose: 4.0 mg/kg/injection, schedule: Q04DX003 (ip), vehicle: saline) 100 % of control [survivor count not shown]; (dose: 5.0 mg/kg/injection, schedule: Q01DX009 (ip), vehicle: saline) 120 % of control [survivor count not shown]; (dose: 8.0 mg/kg/injection, schedule: Q01DX009 (ip), vehicle: saline) 142 % of control [survivor count not shown]; (dose: 8.0 mg/kg/injection, schedule: Q04DX003 (ip), vehicle: saline) 100 % of control [survivor count not shown]; under setting [5], 113 % of control [survivor count not shown]; under setting [6], 95 % of control [survivor count not shown]. In addition, the T/C (dose: 37.5 mg/kg/injection, schedule: Q04DX003 (ip), vehicle: saline) is 159 % of control [survivor count not shown].
In the case of `Cc1cc(C)cc(CN(CCCl)CCCl)c1`, the T/C under setting [4] was 179 % of control [survivor count not shown]; the T/C (dose: 6.0 mg/kg/injection, schedule: Q01DX009 (ip), vehicle: saline) was 166 % of control [survivor count not shown]; the T/C (dose: 9.0 mg/kg/injection, schedule: Q01DX009 (ip), vehicle: saline) is 179 % of control [survivor count not shown]; the T/C under setting [5] is 178 % of control [survivor count not shown]; the T/C under setting [6] is 86 % of control [survivor count not shown].
Turning to `ClCCNCCCCNCCCl`, the T/C is, setting by setting: (dose: 18.7 mg/kg/injection, schedule: Q01DX009 (ip), vehicle: saline) 168 % of control [survivor count not shown]; under setting [2], 190 % of control [survivor count not shown]; under setting [3], 204 % of control [survivor count not shown]; (dose: 44.0 mg/kg/injection, schedule: Q04DX003 (ip), vehicle: saline) 204 % of control [survivor count not shown]; (dose: 50.0 mg/kg/injection, schedule: Q01DX009 (ip), vehicle: saline) 209 % of control [survivor count not shown]; (dose: 66.0 mg/kg/injection, schedule: Q04DX003 (ip), vehicle: saline) 221 % of control [survivor count not shown]. Also, the T/C runs as follows: (dose: 100.0 mg/kg/injection, schedule: Q04DX003 (ip), vehicle: saline) 147 [survivor count not shown] and 173 % of control [survivor count not shown]; (dose: 150.0 mg/kg/injection, schedule: Q04DX003 (ip), vehicle: saline) 121 % of control [survivor count not shown]; (dose: 200.0 mg/kg/injection, schedule: Q04DX003 (ip), vehicle: saline) 100 % of control [survivor count not shown].
Consider `ClCCN(CCCl)C12CC3CC(CC(C3)C1)C2`, for which the T/C reads like this: (dose: 0.12 mg/kg/injection, schedule: Q01DX009 (ip), vehicle: Klucel (hydroxypropylcellulose) (HPC)) 120 % of control [survivor count not shown]; (dose: 0.25 mg/kg/injection, schedule: Q01DX009 (ip), vehicle: Klucel (hydroxypropylcellulose) (HPC)) 118 % of control [survivor count not shown]; (dose: 0.3 mg/kg/injection, schedule: Q01DX009 (ip), vehicle: saline with Tween-80) 160 % of control [survivor count not shown]; (dose: 0.5 mg/kg/injection, schedule: Q01DX009 (ip), vehicle: Klucel (hydroxypropylcellulose) (HPC)) 145 % of control [survivor count not shown]; (dose: 0.6 mg/kg/injection, schedule: Q01DX009 (ip), vehicle: saline with Tween-80) 162 [survivor count not shown] and 183 % of control [survivor count not shown]; (dose: 0.6 mg/kg/injection, schedule: Q04DX003 (ip), vehicle: saline with Tween-80) 136 [survivor count not shown] and 140 % of control [survivor count not shown]. Besides, the T/C (dose: 1.0 mg/kg/injection, schedule: Q01DX009 (ip), vehicle: Klucel (hydroxypropylcellulose) (HPC)) was 200 % of control [survivor count not shown]; the T/C (dose: 1.2 mg/kg/injection, schedule: Q01DX009 (ip), vehicle: saline with Tween-80) is 153 [survivor count not shown] and 170 % of control [survivor count not shown]; the T/C (dose: 1.2 mg/kg/injection, schedule: Q04DX003 (ip), vehicle: saline with Tween-80) is 145 [survivor count not shown] and 159 % of control [survivor count not shown]; the T/C (dose: 2.4 mg/kg/injection, schedule: Q04DX003 (ip), vehicle: saline with Tween-80) was 127 [survivor count not shown] and 136 % of control [survivor count not shown].
